In PMC12210014:
These are yes or no findings as the source states them, for the method shown. Binding seen in cells or lysates may run through a third protein. Some results given as binding are weak or reduced against the parent protein; the word gives no strength. Sequences can lack the tags named with a protein.

By UniProt entry, the sequences of proteins in these tests, tags left out.
UniProt A0ACM8QJT5: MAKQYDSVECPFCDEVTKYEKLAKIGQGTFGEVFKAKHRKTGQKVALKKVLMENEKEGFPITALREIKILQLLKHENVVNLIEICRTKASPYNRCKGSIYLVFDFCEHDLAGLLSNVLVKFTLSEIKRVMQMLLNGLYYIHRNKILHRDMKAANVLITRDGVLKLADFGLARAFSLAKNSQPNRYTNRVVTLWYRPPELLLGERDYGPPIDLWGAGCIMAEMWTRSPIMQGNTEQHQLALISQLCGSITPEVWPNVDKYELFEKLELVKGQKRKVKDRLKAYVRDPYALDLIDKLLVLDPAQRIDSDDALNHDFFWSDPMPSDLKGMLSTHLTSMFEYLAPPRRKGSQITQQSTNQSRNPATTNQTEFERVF

Molecular target: T1, HA-tagged FKBPL (pig) (UniProt A5A8W3)
T1 sequence: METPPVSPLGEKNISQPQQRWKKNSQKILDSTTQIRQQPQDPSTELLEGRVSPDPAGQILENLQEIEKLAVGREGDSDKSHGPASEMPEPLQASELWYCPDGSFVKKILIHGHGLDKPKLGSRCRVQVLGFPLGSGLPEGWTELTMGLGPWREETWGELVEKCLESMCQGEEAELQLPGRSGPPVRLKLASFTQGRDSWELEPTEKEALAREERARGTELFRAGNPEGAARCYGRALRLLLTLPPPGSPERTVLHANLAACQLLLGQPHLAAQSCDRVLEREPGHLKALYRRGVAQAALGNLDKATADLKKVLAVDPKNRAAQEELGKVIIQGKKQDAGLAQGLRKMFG
Experiment: co-IP; IP followed by western blotting, pig 8-cell embryos; three biological replicates

| Substance | binding |
| --- | --- |
| HSP90AA1 (from UniProt O02705 1-733) | binds |
| CDK9 (from UniProt A0ACM8QJT5 1-372) | binds |
